# This is one part of the list. Part of the spread comes from offsets between plates or batches.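 Hits were defined as a z-score below −3.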
# Biological target: T1, YTHDF1 YTH domain (aa 365-554) (UniProt Q9BYJ9)
# T1 sequence (whole entry): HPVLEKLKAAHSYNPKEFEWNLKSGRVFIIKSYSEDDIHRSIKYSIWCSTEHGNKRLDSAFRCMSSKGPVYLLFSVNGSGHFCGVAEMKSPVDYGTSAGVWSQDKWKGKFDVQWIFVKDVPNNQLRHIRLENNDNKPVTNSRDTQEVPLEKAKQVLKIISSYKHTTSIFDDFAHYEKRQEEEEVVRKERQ
# Test: tryptophan fluorescence intensity z-score (mean); higher = higher fluorescence, less quenching (negative = binding / quenching)
# Conditions: 10 µM
row,SMILES,tryptophan fluorescence intensity z-score
1,C/C=C(\C)C(=O)O[C@H]1C[C@@H](OC(C)=O)[C@@]2(C(=O)OC)CO[C@H]3[C@@H](O)[C@@](C)([C@]45O[C@@]4(C)[C@H]4C[C@@H]5O[C@@H]5OC=C[C@@]54O)[C@H]4[C@]1(CO[C@]4(O)C(=O)OC)[C@@H]32 (plate: M 19-20),inactive: 0.239
2,Cc1cc2c(C(C)C)c(O)c(O)c(C=O)c2c(O)c1-c1c(C)cc2c(C(C)C)c(O)c(O)c(C=O)c2c1O (plate: M 19-20),inactive: -0.873
3,COc1cc2c(cc1OC)[C@@H]1C(=O)c3ccc(OC)c(CC=C(C)C)c3O[C@@H]1CO2 (plate: M 21-22),inactive: -0.508
4,C#CCN(C)[C@H](C)Cc1ccccc1 (plate: M 11-12),inactive: -0.000539
5,C[C@@H]1O[C@@H](O[C@@H]2C=C3CC[C@@H]4[C@H](CC[C@]5(C)[C@@H](c6ccc(=O)oc6)CC[C@]45O)[C@@]3(C)CC2)[C@H](O)[C@H](O)[C@H]1O (plate: M 13-14),inactive: 0.276
6,CN(C)C(=O)Oc1ccc[n+](C)c1 (plate: M 7-8),inactive: -0.0161
7,COc1ccc(C(CN(C)C)C2(O)CCCCC2)cc1 (stereo not drawn) (plate: M 9-10),inactive: -0.172
8,CNC(=O)Oc1ccc2c(c1)[C@]1(C)CCN(C)[C@@H]1N2C (plate: M 5-6),inactive: -0.0648
9,CN(C)C(=O)Oc1cccc([N+](C)(C)C)c1 (plate: M 3-4),inactive: -0.364
10,CN1[C@H]2C[C@H](OC(=O)[C@H](CO)c3ccccc3)C[C@@H]1[C@@H](O)C2 (plate: M 17-18),inactive: 0.588
11,CC(C)(N)Cc1ccccc1 (plate: M 11-12),inactive: -0.609
12,CN(CC[C@H](N)CC(=O)N[C@H]1C=C[C@H](n2ccc(N)nc2=O)O[C@@H]1C(=O)O)C(=N)N (plate: M 23-24),inactive: 0.438
13,COc1ccc(C(=O)O)cc1OC (plate: M 21-22),inactive: 0.682
14,CC1(C)C2CC(=O)[C@]3(C)C(CC[C@@]4(C)[C@H](c5ccoc5)OC(=O)[C@H]5O[C@]543)[C@@]2(C)C(=O)C[C@H]1O (stereo partly drawn) (plate: M 13-14),inactive: -0.0073
15,NCC(=O)c1ccccc1 (plate: M 17-18),inactive: 0.166
16,O=c1c(O)c(-c2ccc(O)c(O)c2)oc2c(O)c(O)cc(O)c12 (plate: M 19-20),inactive: -0.573
17,CN1CCc2cc3c(cc2C1O)OCO3 (stereo not drawn) (plate: M 1-2),inactive: 0.217
18,CN[C@@H]1[C@@H](O)[C@@H](O[C@@H]2[C@@H](O)[C@H](O[C@H]3O[C@H]([C@@H](C)O)[C@@H](O)[C@H](O)[C@H]3N)[C@@H](N)C[C@H]2N)OC[C@]1(C)O (plate: M 19-20),inactive: 0.555

# Some of the entries above, set out differently.
row | SMILES | tryptophan fluorescence intensity z-score
14 | CC1(C)C2CC(=O)[C@]3(C)C(CC[C@@]4(C)[C@H](c5ccoc5)OC(=O)[C@H]5O[C@]543)[C@@]2(C)C(=O)C[C@H]1O (stereo partly drawn) (plate: M 13-14) | inactive: -0.0073
15 | NCC(=O)c1ccccc1 (plate: M 17-18) | inactive: 0.166
16 | O=c1c(O)c(-c2ccc(O)c(O)c2)oc2c(O)c(O)cc(O)c12 (plate: M 19-20) | inactive: -0.573
17 | CN1CCc2cc3c(cc2C1O)OCO3 (stereo not drawn) (plate: M 1-2) | inactive: 0.217
18 | CN[C@@H]1[C@@H](O)[C@@H](O[C@@H]2[C@@H](O)[C@H](O[C@H]3O[C@H]([C@@H](C)O)[C@@H](O)[C@H](O)[C@H]3N)[C@@H](N)C[C@H]2N)OC[C@]1(C)O (plate: M 19-20) | inactive: 0.555

# Reference: the supplement of paper PMC9578143, “Small-Molecule Ebselen Binds to YTHDF Proteins Interfering with the Recognition of N^6-Methyladenosine-Modified RNAs” (ACS Pharmacology & Translational Science, 2022)
